# From the supplement of paper PMC6411743
# ± gives the standard deviation of the averaged measurements. Some of the results follow.
# Key:
# Assay in all cases: NP40-soluble protein abundance relative to vehicle (solubility fold change) (ratio); higher = more soluble protein in presence of GTP
# [1] = target: T1, E9PKP0 and related entries (UniProt Q8TDP1)
# T1 sequence (whole entry): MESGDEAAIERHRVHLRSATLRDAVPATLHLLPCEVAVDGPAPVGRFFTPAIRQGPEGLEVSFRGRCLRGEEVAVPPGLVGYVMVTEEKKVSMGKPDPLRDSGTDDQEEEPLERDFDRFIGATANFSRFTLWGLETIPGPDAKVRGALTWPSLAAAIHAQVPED
# In short: (§1)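 Eight concentrations, 0.1 to 10 mM, were tested on Jurkat crude lysate for 10 min at room temperature and then 3 min at 37 °C, in three independent experiments. The lysate was solubilised with 0.8% NP40 and benzonase, ultracentrifuged, and the supernatant TMT-labelled for LC-MS/MS. Each value is the fold change against the detergent-processed vehicle in its own replicate, from vsn-normalised intensities.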
# [2] = target: T2, E9PMW7 and related entries (UniProt P29692)
# T2 sequence (whole entry): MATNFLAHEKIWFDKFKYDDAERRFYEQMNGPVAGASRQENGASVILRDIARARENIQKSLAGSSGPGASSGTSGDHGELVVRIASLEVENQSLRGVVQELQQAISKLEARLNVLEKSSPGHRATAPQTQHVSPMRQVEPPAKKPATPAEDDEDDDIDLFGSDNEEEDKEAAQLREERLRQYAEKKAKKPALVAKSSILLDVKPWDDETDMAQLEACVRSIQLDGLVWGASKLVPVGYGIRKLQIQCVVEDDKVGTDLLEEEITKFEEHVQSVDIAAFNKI
# In short: as §1
# [3] = target: T3, E9PNT2 (UniProt Q6ZUM4)
# T3 sequence (whole entry): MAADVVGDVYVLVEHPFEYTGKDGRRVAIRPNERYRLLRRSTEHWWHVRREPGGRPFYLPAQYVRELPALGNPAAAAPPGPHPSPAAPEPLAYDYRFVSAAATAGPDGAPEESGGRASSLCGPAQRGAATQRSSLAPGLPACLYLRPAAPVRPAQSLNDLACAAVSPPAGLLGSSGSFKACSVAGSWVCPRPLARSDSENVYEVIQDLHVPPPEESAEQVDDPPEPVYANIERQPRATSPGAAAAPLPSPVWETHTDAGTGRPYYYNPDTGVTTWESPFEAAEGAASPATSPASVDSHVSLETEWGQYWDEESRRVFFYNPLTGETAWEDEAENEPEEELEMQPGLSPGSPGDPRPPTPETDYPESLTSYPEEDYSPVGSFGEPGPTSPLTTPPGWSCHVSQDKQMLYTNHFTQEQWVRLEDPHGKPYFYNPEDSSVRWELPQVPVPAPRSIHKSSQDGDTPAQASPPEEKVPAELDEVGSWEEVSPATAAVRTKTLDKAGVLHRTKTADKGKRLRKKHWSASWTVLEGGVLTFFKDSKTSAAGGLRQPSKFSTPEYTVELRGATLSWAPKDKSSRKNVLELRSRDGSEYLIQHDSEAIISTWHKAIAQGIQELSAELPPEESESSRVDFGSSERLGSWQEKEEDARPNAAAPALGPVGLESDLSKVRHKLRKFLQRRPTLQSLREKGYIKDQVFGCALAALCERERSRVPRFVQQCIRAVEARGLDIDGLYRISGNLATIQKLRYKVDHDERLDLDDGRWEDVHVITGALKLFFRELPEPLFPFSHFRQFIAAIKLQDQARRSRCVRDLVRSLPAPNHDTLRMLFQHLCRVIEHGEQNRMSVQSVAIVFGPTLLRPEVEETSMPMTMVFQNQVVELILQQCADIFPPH
# In short: as §1
# [4] = target: T4, E9PRZ1 and related entries (UniProt Q96ER3)
# T4 sequence (whole entry): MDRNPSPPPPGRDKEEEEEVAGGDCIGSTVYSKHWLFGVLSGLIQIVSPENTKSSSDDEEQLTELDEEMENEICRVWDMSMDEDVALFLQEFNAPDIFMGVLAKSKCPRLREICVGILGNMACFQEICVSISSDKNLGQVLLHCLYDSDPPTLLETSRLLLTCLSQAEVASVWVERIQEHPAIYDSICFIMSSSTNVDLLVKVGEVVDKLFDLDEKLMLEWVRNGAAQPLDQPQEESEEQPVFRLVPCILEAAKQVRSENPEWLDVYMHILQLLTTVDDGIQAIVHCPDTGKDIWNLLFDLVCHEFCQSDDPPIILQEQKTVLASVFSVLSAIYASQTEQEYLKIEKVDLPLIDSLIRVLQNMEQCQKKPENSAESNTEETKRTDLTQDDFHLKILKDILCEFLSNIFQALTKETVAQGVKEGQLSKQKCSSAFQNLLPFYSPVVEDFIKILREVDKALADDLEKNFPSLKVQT
# In short: as §1
# [5] = target: T5, F5GX51 (UniProt Q9Y4F9)
# T5 sequence (whole entry): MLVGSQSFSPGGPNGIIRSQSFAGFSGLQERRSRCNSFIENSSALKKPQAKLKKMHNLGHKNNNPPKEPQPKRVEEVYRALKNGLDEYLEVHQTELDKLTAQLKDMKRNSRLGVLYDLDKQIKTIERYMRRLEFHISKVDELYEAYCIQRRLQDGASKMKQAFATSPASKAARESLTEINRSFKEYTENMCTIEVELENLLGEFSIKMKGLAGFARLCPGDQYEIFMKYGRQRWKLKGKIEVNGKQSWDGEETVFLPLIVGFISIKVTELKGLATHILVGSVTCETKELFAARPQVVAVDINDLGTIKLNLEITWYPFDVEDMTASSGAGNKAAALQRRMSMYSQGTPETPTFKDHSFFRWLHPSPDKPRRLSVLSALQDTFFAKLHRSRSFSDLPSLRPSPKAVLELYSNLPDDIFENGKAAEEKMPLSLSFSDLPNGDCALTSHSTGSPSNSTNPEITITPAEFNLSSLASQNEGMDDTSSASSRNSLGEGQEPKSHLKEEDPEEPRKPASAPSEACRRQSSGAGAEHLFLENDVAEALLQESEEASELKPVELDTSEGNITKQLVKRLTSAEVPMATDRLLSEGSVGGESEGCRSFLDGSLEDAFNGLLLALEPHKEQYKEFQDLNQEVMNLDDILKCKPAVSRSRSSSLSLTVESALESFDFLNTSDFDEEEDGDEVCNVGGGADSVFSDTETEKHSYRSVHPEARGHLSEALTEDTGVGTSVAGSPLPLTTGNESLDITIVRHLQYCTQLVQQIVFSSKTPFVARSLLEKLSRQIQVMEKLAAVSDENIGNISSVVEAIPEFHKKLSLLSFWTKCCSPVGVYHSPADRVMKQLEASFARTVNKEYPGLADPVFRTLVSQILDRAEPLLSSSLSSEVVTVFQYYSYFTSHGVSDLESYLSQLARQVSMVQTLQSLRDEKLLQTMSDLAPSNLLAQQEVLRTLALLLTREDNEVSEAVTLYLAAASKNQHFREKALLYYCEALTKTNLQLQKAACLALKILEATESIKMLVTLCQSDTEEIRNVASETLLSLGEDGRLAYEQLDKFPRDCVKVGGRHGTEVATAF
# In short: as §1
smiles,measurement,setting,value
Nc1nc2c(ncn2[C@@H]2O[C@H](COP(=O)(O)OP(=O)(O)OP(=O)(O)O)[C@@H](O)[C@H]2O)c(=O)[nH]1 [guanosine triphosphate],NP40-soluble protein abundance,[1]; concentration: 8mM,0.898 ± 0.064
same,NP40-soluble protein abundance,[1]; concentration: 10mM,0.894 ± 0.064
same,NP40-soluble protein abundance,[2]; concentration: 0.1mM,0.949 ± 0.09
same,NP40-soluble protein abundance,[2]; concentration: 0.5mM,0.949 ± 0.066
same,NP40-soluble protein abundance,[2]; concentration: 1mM,1.07 ± 0.13
same,NP40-soluble protein abundance,[2]; concentration: 2mM,1.09 ± 0.095
same,NP40-soluble protein abundance,[2]; concentration: 4mM,1.07 ± 0.11
same,NP40-soluble protein abundance,[2]; concentration: 6mM,1.11 ± 0.11
same,NP40-soluble protein abundance,[2]; concentration: 8mM,1.07 ± 0.16
same,NP40-soluble protein abundance,[2]; concentration: 10mM,1.14 ± 0.2
same,NP40-soluble protein abundance,[3]; concentration: 0.1mM,1.08 ± 0.034
same,NP40-soluble protein abundance,[3]; concentration: 0.5mM,1.02 ± 0.044
same,NP40-soluble protein abundance,[3]; concentration: 1mM,1.02 ± 0.058
same,NP40-soluble protein abundance,[3]; concentration: 2mM,0.988 ± 0.035
same,NP40-soluble protein abundance,[3]; concentration: 4mM,1.01 ± 0.024
same,NP40-soluble protein abundance,[3]; concentration: 6mM,0.984 ± 0.048
same,NP40-soluble protein abundance,[3]; concentration: 8mM,0.954 ± 0.051
same,NP40-soluble protein abundance,[3]; concentration: 10mM,0.943 ± 0.068
same,NP40-soluble protein abundance,[4]; concentration: 0.1mM,0.96 ± 0.033
same,NP40-soluble protein abundance,[4]; concentration: 0.5mM,0.954 ± 0.042
same,NP40-soluble protein abundance,[4]; concentration: 1mM,0.9505 ± 0.007
same,NP40-soluble protein abundance,[4]; concentration: 2mM,0.924 ± 0.042
same,NP40-soluble protein abundance,[4]; concentration: 4mM,0.961 ± 0.051
same,NP40-soluble protein abundance,[4]; concentration: 6mM,0.909 ± 0.051
same,NP40-soluble protein abundance,[4]; concentration: 8mM,0.891 ± 0.058
same,NP40-soluble protein abundance,[4]; concentration: 10mM,0.924 ± 0.031
same,NP40-soluble protein abundance,[5]; concentration: 0.1mM,0.981 ± 0.032
same,NP40-soluble protein abundance,[5]; concentration: 0.5mM,0.991 ± 0.021
same,NP40-soluble protein abundance,[5]; concentration: 1mM,0.988 ± 0.084
same,NP40-soluble protein abundance,[5]; concentration: 2mM,0.994 ± 0.074

# Part of the list above, with bars between the fields:
smiles | measurement | setting | value
Nc1nc2c(ncn2[C@@H]2O[C@H](COP(=O)(O)OP(=O)(O)OP(=O)(O)O)[C@@H](O)[C@H]2O)c(=O)[nH]1 [guanosine triphosphate] | NP40-soluble protein abundance | [2]; concentration: 4mM | 1.07 ± 0.11
same | NP40-soluble protein abundance | [2]; concentration: 6mM | 1.11 ± 0.11
